Earlier results in patent US20080004247A1, “Combinations of Statins with Bronchodilators” (ASTRAZENECA AB, priority 2004, published 2008).
For at least one compound, name, drawing or mass did not settle the structure.

Tested on: alveolar macrophages derived from chronic bronchitis patients
Details: cited from earlier work

Question: Which “inflammatory activity in alveolar macrophages” value does the source give for COCc1c(C(C)C)nc(C(C)C)c(/C=C/[C@@H](O)C[C@@H](O)CC(=O)O)c1-c1ccc(F)cc1 [cerivastatin] here?
Answer: reduce inflammatory activity
